According to paper doi:10.1101/2020.07.19.210252:
No constants are given. Whether binding was seen depends on the method and setting. Binding seen in cells or lysates may run through a third protein. Some results given as binding are weak or reduced against the parent protein; the word gives no strength.

Sequences of proteins named here, by UniProt entry; tags and fusion partners are left off.
UniProt P51114: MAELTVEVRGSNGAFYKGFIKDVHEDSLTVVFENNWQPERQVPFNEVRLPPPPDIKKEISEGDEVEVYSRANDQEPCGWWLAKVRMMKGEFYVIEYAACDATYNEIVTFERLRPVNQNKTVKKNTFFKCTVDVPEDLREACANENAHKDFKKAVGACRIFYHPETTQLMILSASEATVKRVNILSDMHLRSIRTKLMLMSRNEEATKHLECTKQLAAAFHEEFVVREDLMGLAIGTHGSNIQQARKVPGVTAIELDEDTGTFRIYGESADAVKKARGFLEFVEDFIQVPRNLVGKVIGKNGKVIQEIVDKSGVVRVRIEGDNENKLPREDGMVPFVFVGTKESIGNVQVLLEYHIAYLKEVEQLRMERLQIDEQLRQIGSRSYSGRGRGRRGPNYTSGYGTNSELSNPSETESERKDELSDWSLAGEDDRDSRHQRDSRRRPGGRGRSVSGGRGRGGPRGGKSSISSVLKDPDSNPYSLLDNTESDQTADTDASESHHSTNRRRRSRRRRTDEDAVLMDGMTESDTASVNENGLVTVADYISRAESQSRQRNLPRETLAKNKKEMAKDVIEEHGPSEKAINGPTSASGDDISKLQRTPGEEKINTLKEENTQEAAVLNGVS
UniProt P60842: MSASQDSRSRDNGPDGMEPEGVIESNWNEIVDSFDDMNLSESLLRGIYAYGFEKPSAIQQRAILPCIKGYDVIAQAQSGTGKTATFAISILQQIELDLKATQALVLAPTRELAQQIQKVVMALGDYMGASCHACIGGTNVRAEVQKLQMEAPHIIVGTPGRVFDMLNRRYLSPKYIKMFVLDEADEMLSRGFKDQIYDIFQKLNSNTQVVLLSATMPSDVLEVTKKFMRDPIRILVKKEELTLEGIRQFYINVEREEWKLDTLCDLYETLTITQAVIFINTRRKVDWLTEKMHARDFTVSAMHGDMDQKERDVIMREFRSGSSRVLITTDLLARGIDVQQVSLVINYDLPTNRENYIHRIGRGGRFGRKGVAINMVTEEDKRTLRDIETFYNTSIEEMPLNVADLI
UniProt P06730: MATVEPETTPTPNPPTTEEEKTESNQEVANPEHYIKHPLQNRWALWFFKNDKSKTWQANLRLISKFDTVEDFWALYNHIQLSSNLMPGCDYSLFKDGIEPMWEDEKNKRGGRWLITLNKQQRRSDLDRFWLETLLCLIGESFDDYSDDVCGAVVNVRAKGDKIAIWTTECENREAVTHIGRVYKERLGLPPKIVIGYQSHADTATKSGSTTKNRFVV

Target: FXR1 (fragile X-related protein 1) (human (endogenous in HeyA8)) (UniProt P51114)
Experiment: co-IP

Substance	binding
eIF4A1 (from UniProt P60842 1-406)	binds
eIF4E (from UniProt P06730 1-217)	binds
